Measurements: the supplement of paper PMC12067093, “Discovery and optimisation of a covalent ligand for TRIM25 and its application to targeted protein ubiquitination” (Chemical Science, 2025)
The list shows a part of the results.

The chains behind the UniProt entries cited, without tags or fusion partners. Where a name states a change or a piece, a line headed by the entry shows the natural chain unless it says otherwise.
UniProt P05107, whole entry, looked up: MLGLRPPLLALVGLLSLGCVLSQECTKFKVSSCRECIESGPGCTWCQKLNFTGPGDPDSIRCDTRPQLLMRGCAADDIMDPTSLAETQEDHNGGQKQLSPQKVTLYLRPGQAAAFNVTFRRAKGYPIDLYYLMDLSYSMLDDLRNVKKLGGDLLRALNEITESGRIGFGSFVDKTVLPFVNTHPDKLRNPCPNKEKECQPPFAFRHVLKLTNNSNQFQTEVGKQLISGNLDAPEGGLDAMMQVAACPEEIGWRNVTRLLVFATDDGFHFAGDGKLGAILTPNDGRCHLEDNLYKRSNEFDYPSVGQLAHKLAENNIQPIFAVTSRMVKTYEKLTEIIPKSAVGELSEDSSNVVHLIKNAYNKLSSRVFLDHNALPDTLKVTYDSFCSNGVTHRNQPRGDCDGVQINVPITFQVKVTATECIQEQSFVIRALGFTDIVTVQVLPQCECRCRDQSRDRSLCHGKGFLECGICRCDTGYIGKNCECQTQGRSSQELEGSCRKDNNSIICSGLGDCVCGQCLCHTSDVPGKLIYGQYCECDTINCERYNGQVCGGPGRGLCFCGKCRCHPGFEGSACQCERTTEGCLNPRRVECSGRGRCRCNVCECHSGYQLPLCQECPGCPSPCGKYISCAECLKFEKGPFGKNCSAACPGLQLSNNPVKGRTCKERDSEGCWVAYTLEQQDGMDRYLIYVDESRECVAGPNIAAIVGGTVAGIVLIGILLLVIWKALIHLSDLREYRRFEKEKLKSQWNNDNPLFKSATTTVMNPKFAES
UniProt Q9NVM9, whole entry, looked up: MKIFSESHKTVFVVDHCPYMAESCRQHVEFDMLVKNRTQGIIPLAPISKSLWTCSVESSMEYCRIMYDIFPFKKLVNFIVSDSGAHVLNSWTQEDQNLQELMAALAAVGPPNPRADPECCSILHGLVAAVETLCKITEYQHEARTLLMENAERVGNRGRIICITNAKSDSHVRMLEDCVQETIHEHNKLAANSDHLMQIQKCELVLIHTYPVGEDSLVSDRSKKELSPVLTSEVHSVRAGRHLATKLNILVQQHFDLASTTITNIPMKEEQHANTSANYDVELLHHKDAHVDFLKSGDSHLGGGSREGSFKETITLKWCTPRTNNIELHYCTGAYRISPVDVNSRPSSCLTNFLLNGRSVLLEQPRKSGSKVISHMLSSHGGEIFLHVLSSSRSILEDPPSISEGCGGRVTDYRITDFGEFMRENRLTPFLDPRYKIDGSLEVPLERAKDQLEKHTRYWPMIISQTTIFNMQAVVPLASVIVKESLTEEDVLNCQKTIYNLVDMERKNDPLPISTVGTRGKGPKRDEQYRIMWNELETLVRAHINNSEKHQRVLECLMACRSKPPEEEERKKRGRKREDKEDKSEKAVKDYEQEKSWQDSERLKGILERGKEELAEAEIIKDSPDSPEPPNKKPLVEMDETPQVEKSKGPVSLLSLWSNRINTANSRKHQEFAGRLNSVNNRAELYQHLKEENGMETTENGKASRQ
UniProt P05556, whole entry, looked up: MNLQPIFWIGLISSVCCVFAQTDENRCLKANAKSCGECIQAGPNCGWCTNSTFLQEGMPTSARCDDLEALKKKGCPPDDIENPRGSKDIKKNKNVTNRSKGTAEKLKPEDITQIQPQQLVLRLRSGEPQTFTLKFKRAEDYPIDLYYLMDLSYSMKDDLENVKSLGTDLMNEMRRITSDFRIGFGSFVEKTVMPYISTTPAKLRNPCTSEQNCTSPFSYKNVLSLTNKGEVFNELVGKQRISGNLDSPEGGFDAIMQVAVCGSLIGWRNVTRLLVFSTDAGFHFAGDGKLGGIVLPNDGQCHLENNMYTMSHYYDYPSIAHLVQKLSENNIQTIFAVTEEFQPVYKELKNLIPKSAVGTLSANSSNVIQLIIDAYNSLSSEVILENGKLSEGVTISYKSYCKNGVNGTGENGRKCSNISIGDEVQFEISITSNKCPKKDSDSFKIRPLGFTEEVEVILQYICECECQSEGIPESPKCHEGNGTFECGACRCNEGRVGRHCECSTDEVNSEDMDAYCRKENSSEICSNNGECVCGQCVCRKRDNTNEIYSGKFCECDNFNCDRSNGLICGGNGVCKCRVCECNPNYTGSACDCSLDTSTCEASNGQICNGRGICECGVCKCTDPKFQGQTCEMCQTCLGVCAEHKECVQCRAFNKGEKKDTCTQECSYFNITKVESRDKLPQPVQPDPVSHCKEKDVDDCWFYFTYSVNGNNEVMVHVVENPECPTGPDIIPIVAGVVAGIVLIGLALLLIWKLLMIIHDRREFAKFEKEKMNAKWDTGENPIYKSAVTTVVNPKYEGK
UniProt Q02556: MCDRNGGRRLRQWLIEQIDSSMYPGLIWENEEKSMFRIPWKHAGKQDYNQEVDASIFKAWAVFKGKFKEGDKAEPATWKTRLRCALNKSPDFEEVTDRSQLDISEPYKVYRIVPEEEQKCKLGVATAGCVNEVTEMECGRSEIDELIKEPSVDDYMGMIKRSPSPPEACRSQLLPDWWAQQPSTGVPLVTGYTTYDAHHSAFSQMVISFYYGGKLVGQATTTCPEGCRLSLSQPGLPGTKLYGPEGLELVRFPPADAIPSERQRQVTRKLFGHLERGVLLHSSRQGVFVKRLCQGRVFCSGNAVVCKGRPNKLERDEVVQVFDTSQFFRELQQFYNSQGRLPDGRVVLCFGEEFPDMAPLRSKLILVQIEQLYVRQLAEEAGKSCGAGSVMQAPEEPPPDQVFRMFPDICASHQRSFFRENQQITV
UniProt Q9Y2H2: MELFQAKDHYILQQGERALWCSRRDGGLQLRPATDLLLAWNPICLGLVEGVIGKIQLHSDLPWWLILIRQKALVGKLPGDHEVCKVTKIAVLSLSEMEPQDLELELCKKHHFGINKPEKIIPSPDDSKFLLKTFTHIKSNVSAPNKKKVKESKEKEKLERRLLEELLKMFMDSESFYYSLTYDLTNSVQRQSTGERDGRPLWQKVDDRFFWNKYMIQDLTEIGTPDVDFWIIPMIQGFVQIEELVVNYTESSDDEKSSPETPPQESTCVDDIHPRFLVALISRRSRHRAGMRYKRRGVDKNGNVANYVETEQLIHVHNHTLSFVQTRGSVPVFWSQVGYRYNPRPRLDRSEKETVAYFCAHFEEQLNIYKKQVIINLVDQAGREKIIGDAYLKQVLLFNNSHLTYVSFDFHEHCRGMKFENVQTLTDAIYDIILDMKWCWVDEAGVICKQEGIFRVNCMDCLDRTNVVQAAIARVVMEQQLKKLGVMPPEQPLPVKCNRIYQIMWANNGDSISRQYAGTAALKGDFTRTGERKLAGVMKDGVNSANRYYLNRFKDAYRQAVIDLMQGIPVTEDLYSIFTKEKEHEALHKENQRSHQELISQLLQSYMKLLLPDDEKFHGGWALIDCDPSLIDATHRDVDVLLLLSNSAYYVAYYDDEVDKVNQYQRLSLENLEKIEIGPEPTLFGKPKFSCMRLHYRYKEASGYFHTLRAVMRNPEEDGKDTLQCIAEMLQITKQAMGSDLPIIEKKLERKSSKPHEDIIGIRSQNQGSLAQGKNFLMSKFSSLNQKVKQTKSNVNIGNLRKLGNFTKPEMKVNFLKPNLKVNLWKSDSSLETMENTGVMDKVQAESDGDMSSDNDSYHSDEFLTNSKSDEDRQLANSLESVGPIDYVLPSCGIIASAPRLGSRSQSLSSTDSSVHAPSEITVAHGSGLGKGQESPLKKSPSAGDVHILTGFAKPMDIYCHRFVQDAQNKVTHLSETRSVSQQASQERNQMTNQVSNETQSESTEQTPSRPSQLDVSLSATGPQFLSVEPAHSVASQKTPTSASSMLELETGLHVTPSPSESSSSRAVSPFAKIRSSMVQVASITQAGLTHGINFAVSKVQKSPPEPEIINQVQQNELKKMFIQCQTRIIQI
UniProt Q9NVH2, whole entry, looked up: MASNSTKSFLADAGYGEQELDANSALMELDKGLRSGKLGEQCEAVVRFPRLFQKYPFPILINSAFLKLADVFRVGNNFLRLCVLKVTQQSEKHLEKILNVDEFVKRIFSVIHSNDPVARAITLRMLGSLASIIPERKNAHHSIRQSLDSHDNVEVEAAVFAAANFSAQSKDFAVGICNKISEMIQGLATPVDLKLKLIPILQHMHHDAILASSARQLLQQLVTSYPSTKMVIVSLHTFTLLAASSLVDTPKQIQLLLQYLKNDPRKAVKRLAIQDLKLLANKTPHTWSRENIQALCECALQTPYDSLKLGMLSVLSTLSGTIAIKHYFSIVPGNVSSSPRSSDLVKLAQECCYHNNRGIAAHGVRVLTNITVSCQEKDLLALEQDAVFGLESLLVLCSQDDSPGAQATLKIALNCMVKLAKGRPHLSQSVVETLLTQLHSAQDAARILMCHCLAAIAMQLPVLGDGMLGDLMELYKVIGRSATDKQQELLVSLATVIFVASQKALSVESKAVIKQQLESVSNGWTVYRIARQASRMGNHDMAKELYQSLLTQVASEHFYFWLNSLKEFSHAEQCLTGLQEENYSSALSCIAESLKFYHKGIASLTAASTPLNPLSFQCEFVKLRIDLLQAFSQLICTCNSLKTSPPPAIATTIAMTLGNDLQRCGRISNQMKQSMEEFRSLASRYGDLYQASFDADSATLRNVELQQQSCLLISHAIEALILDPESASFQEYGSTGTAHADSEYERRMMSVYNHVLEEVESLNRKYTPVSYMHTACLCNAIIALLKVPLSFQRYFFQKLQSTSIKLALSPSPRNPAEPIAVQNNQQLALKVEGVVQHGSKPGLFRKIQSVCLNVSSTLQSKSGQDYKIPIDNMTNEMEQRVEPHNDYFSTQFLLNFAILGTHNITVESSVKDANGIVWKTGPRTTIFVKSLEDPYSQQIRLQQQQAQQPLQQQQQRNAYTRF
UniProt Q8IU81: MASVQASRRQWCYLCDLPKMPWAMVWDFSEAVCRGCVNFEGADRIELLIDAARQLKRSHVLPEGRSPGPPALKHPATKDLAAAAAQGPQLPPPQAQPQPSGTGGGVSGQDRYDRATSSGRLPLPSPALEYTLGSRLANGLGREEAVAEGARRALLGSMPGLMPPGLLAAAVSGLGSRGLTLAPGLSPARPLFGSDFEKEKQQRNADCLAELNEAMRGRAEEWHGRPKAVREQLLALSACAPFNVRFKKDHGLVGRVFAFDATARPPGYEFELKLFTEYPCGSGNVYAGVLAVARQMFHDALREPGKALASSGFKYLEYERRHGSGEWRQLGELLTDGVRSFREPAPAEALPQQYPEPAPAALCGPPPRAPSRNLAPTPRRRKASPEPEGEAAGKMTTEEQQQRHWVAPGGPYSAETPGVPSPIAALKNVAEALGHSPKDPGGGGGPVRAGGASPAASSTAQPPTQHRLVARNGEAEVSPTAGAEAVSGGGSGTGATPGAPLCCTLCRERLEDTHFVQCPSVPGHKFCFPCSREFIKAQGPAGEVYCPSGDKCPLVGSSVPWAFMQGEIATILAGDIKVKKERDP
UniProt P05161, whole entry, looked up: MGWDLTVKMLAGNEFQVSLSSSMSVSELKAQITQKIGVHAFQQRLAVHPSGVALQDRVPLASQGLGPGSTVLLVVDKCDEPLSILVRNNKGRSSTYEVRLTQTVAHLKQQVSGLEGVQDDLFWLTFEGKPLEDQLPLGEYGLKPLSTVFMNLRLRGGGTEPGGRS

Compound: CC1Cc2ccccc2N1C(=O)C1CCCN(C1)C(=O)CCl (mixture of isomers) [TRIM25 ligand 11 (diastereomer mixture)]
Test: probe-labelled cysteine peptide fold change vs DMSO (competition) (log2 fold change); higher = less target engagement (more negative = stronger competition)
Details: THP-1, incubation time: 4 h
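Note: competitive chemoproteomic profiling in live THP-1 cells with an iodoacetamide desthiobiotin (IA-DTB) probe, comparing probe-labelled peptide intensities in compound-treated cells against DMSO-treated controls.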

| Target | probe-labelled cysteine peptide fold change (10 µM) | probe-labelled cysteine peptide fold change (50 µM) |
| --- | --- | --- |
| INPP5D_Q92835_956_DSPLGPCR (UniProt Q92835) | -0.0931 | -0.139 |
| ITGA5_P08648_911+916_CPEAECFR (UniProt P08648) | -0.053 | -0.139 |
| INTS2_Q9H0H0_1186+1188_DTGSMDPDVQLCHCIER (UniProt Q9H0H0) | 0.17 | 0.315 |
| IPO9_Q96P70_639_ELSQIEACQGPMQMR (UniProt Q96P70) | -0.0476 | -0.187 |
| ITGB2_P05107_497_SSQELEGSCR (UniProt P05107) | 0.0344 | 0.0786 |
| INTS1_Q8N201_1534_SGEQCSVEPDLISK (UniProt Q8N201) | 0.0117 | 0.086 |
| IPO4_Q8TEX9_726_KAAHEALGQFCCALHK (UniProt Q8TEX9) | -0.155 | 0.0591 |
| IPO4_Q8TEX9_726_AAHEALGQFCCALHK (UniProt Q8TEX9) | 0.0808 | 0.0814 |
| IQGAP1_P46940_524_AQAHAENNEFITWNDIQACVDHVNLVVQEEHER (UniProt P46940) | -0.0917 | 0.141 |
| IRF9_Q00978_241_VVGEAQVQSLDCR (UniProt Q00978) | -0.0252 | -0.0765 |
| ISCU_Q9H1K1_130_ELCLPPVK (UniProt Q9H1K1) | -0.0861 | 0.12 |
| INTS13_Q9NVM9_349_ISPVDVNSRPSSCLTNFLLNGR (UniProt Q9NVM9) | 0.0201 | -0.178 |
| IPO4_Q8TEX9_725+726_AAHEALGQFCCALHK (UniProt Q8TEX9) | -0.0817 | -0.0945 |
| IQGAP1_P46940_1270_RFFQTACDVPELQDK (UniProt P46940) | 0.138 | 0.115 |
| ITGB1_P05556_555_FCECDNFNCDR (UniProt P05556) | 0.106 | 0.201 |
| IPO5_O00410_560_TIECISLIGLAVGK (UniProt O00410) | 0.00556 | 0.0463 |
| IPO5_O00410_750_GPEYLTQMWHFMCDALIK (UniProt O00410) | 0.259 | 0.22 |
| IRF2BP2_Q7Z5L9_16+19_QSCYLCDLPR (UniProt Q7Z5L9) | 0.0224 | -0.127 |
| IPO7_O95373_736_VLTGVAGEDAECHAAK (UniProt O95373) | 0.25 | 0.0627 |
| IREB2_P48200_120_VHPACPTDLTVDHSLQIDFSK (UniProt P48200) | -0.0672 | 0.0352 |
| ITGAM_P11215_144_GCPQEDSDIAFLIDGSGSIIPHDFR (UniProt P11215) | 0.346 | 0.196 |

| Target | probe-labelled cysteine peptide fold change (10 µM) | probe-labelled cysteine peptide fold change (50 µM) |
| --- | --- | --- |
| IRF8_Q02556_299+306_VFCSGNAVVCK (UniProt Q02556) | 0.124 | 0.229 |
| INPP5F_Q9Y2H2_725_DTLQCIAEMLQITK (UniProt Q9Y2H2) | 0.173 | 0.242 |
| ITGB1BP1_O14713_60_SSGQSNNNSDTCAEFR (UniProt O14713) | -0.172 | -0.318 |
| IPO4_Q8TEX9_350_LCPQLMPMLEEALR (UniProt Q8TEX9) | 0.0945 | -0.122 |
| IRF2BP2_Q7Z5L9_16_QSCYLCDLPR (UniProt Q7Z5L9) | -0.0578 | -0.0183 |
| IQGAP1_P46940_45_RQNVAYEYLCHLEEAK (UniProt P46940) | 0.053 | 0.173 |
| INTS7_Q9NVH2_374_VLTNITVSCQEK (UniProt Q9NVH2) | -0.0949 | -0.066 |
| INTS10_Q9NVR2_502_ALIQLATCHFALGEYR (UniProt Q9NVR2) | -0.072 | 0.0269 |
| INTS13_Q9NVM9_119_ADPECCSILHGLVAAVETLCK (UniProt Q9NVM9) | 0.136 | 0.0582 |
| INTS14_Q96SY0_464_GVADMLERECTLLPETAHPDAAFQLTHAAQQLK (UniProt Q96SY0) | -0.188 | 0.158 |
| INTS14_Q96SY0_171_LYIMCMANLEELQSTDSLECLER (UniProt Q96SY0) | -0.0852 | -0.0827 |
| IREB2_P48200_604_QGDLVTCGILSGNK (UniProt P48200) | -0.0687 | -0.0857 |
| ITGB1_P05556_691_DKLPQPVQPDPVSHCK (UniProt P05556) | -0.0568 | -0.0219 |
| ITGAM_P11215_123_GLCFLFGSNLR (UniProt P11215) | 0.138 | -0.0456 |
| INTS7_Q9NVH2_352_LAQECCYHNNR (UniProt Q9NVH2) | 0.106 | 0.189 |
| ISOC2_Q96AB3_21_VLPGSSVLFLCDMQEK (UniProt Q96AB3) | -0.265 | 0.0576 |
| IRAK3_Q9Y616_532_RNEEACNMPSSSCEESWFPK (UniProt Q9Y616) | 0.0201 | -0.23 |
| IRF2BP1_Q8IU81_239_EQLLALSACAPFNVR (UniProt Q8IU81) | -0.0728 | -0.0541 |
| IRF2BP2_Q7Z5L9_506_EVGGQGAGNTGGLEPVHPASLPDSSLATSAPLCCTLCHER (UniProt Q7Z5L9) | 0.0496 | -0.283 |
| ITGB2_P05107_536_LIYGQYCECDTINCER (UniProt P05107) | 0.116 | -0.103 |
| IRF2BP1_Q8IU81_363_EPAPAEALPQQYPEPAPAALCGPPPR (UniProt Q8IU81) | 0.0731 | -0.0622 |

Reprinted at random: 3 records from the list.

| Target | probe-labelled cysteine peptide fold change (10 µM) | probe-labelled cysteine peptide fold change (50 µM) |
| --- | --- | --- |
| IRF2BP2_Q7Z5L9_16_QSCYLCDLPR (UniProt Q7Z5L9) | -0.0578 | -0.0183 |
| IPO7_O95373_736_VLTGVAGEDAECHAAK (UniProt O95373) | 0.25 | 0.0627 |
| IRF2BP1_Q8IU81_363_EPAPAEALPQQYPEPAPAALCGPPPR (UniProt Q8IU81) | 0.0731 | -0.0622 |

(listing goes on)

| Target | probe-labelled cysteine peptide fold change (10 µM) | probe-labelled cysteine peptide fold change (50 µM) |
| --- | --- | --- |
| IPO4_Q8TEX9_708_LLECPHLNVR (UniProt Q8TEX9) | 0.0843 | -0.118 |
| IRS2_Q9Y4H2_409_SHTLSGGCGGR (UniProt Q9Y4H2) | 0.0411 | -0.153 |
| ITGAM_P11215_654_VCLHVQK (UniProt P11215) | -0.0105 | 0.0507 |
| INPP5D_Q92835_736_CYATLK (UniProt Q92835) | 0.0943 | 0.0324 |
| IRF2BP2_Q7Z5L9_16_RQSCYLCDLPR (UniProt Q7Z5L9) | -0.0675 | 0.0102 |
| ITGB2_P05107_472_CDTGYIGK (UniProt P05107) | 0.00697 | 0.0639 |
| INTS13_Q9NVM9_560_VLECLMACR (UniProt Q9NVM9) | -0.0941 | 0.0497 |
| ITGAL_P20701_1154_GVPNGIPAEDSEQLASGQEAGDPGCLKPLHEK (UniProt P20701) | -0.0824 | -0.106 |
| IPO9_Q96P70_545_AIWGYCDQLK (UniProt Q96P70) | -0.000505 | -0.00285 |
| IRF2BP1_Q8IU81_207_NADCLAELNEAMR (UniProt Q8IU81) | -0.113 | -0.28 |
| INPP5F_Q9Y2H2_725_NPEEDGKDTLQCIAEMLQITK (UniProt Q9Y2H2) | -0.143 | -0.053 |
| IQGAP3_Q86VI3_74_LGHCFAPSVVPLK (UniProt Q86VI3) | 0.0152 | 0.0451 |
| IRF2BP2_Q7Z5L9_509_EVGGQGAGNTGGLEPVHPASLPDSSLATSAPLCCTLCHER (UniProt Q7Z5L9) | 0.00326 | 0.127 |
| INTS3_Q68E01_843_YKEHPEALSCLLLQLR (UniProt Q68E01) | -0.202 | -0.197 |
| IRF8_Q02556_306_VFCSGNAVVCK (UniProt Q02556) | 0.0194 | 0.142 |
| INSR_P06213_825_IELQACNQDTPEER (UniProt P06213) | -0.0166 | -0.0546 |
| INTS14_Q96SY0_218_CGHLTADVQVFPRPEPFVVDEEIDPIPK (UniProt Q96SY0) | 0.119 | 0.0109 |
| INTS1_Q8N201_1833_VPVPEVLLHSEGAASSSVCK (UniProt Q8N201) | 0.0332 | -0.0377 |
| ISG15_P05161_78_CDEPLSILVR (UniProt P05161) | 0.297 | 0.364 |
| IRF2BP2_Q7Z5L9_549_QQGASGEVYCPSGEK (UniProt Q7Z5L9) | -0.0492 | 0.0193 |
| ITGB1_P05556_75_GCPPDDIENPR (UniProt P05556) | -0.104 | 0.0494 |

Shown comma-delimited: part of the list above
Target,probe-labelled cysteine peptide fold change (10 µM),probe-labelled cysteine peptide fold change (50 µM)
IPO5_O00410_750_GPEYLTQMWHFMCDALIK (UniProt O00410),0.259,0.22
ITGAL_P20701_1154_GVPNGIPAEDSEQLASGQEAGDPGCLKPLHEK (UniProt P20701),-0.0824,-0.106

(next part)

| Target | probe-labelled cysteine peptide fold change (10 µM) | probe-labelled cysteine peptide fold change (50 µM) |
| --- | --- | --- |
| IPO7_O95373_736_KVLTGVAGEDAECHAAK (UniProt O95373) | -0.057 | -0.0217 |
| INTS13_Q9NVM9_331_TNNIELHYCTGAYR (UniProt Q9NVM9) | 0.0141 | 0.113 |
| ISL2_Q96A47_114_DSVYHIECFR (UniProt Q96A47) | -0.053 | -0.122 |
| IRF2BP1_Q8IU81_36_GCVNFEGADR (UniProt Q8IU81) | -0.0621 | 0.0398 |
| ITGB2_P05107_670_ERDSEGCWVAYTLEQQDGMDR (UniProt P05107) | 0.257 | 0.183 |
| IRF2BP2_Q7Z5L9_19_QSCYLCDLPR (UniProt Q7Z5L9) | -0.276 | -0.103 |
| INTS3_Q68E01_498_EKFPEFCSSPSPPVEVK (UniProt Q68E01) | 0.218 | 0.0802 |
| INPP5D_Q92835_385_EGFCQLLQQMK (UniProt Q92835) | 0.00866 | -0.134 |
| IPO5_O00410_348_MACGLGGK (UniProt O00410) | -0.00928 | -0.0308 |
| IPO4_Q8TEX9_566+574_AVGEPMRPLAEECCQLGLGLCDQVDDPDLRR (UniProt Q8TEX9) | 0.00426 | -0.00248 |
| INTS6L_Q5JSJ4_745_NCSLSVDDQK (UniProt Q5JSJ4) | 0.156 | -0.0158 |
| IQGAP1_P46940_660_SPDVGLYGVIPECGETYHSDLAEAK (UniProt P46940) | -0.0642 | -0.179 |
| ITGB2_P05107_481+483_NCECQTQGR (UniProt P05107) | -0.00763 | 0.153 |
| ITGB1_P05556_64_CDDLEALK (UniProt P05556) | -0.0378 | -0.0333 |
| IPO4_Q8TEX9_574_AVGEPMRPLAEECCQLGLGLCDQVDDPDLRR (UniProt Q8TEX9) | 0.0522 | -0.0355 |
| IREB2_P48200_178_GSCDSGELGR (UniProt P48200) | 0.0878 | -0.123 |
| ITGAX_P20702_722_AHCENFNLLLPSCVEDSVTPITLR (UniProt P20702) | -0.0743 | 0.357 |
| INPP5D_Q92835_1050_KEPPPCPEPGILSPSIVLTK (UniProt Q92835) | -0.0387 | -0.231 |
